Results from paper PMC7693658, “SaUspA, the Universal Stress Protein of Sulfolobus acidocaldarius Stimulates the Activity of the PP2A Phosphatase and Is Involved in Growth at High Salinity” (Frontiers in Microbiology, 2020).

Target: T1, C-terminally his6-tagged PP2A (serine/threonine protein phosphatase PP2A of Sulfolobus acidocaldarius) (Sulfolobus acidocaldarius) (UniProt Q4JAD1)
T1 sequence: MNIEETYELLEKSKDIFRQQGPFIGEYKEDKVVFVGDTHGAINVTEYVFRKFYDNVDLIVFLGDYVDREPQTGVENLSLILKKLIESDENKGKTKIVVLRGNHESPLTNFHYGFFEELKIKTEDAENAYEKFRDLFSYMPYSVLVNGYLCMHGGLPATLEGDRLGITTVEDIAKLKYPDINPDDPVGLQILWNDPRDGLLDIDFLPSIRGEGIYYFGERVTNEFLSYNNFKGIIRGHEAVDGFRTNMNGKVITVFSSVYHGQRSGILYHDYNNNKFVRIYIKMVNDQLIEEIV
Experiment: pull-down; co-purification: 500 μL of each purified protein (0.5 mg/mL) mixed, 55°C for 30 min, applied to IMAC (Ni-NTA) resin that holds PP2A-his, washed, eluted with imidazole; Western blot with α-His and α-Strep; without or with pre-incubation of SaUspA with 1 mM ATP, 5 mM MgCl2 at 25°C for 30 min; both purified

binding: binds
Substance: StrepII-tagged SaUspA^G97A (ATP-binding deficient mutant of SaUspA) (Sulfolobus acidocaldarius)

No constants are given. Whether binding was seen depends on the method and setting. Binding seen in cells or lysates may run through a third protein. Binding calls can cover weak binding; strength is not graded here. Sequences can lack the tags named with a protein.
